{"source": "patent US20180237774A1", "about": "“METHODS OF SCREENING FOR RIBOSWITCHES AND ATTENUATORS” (priority 2015, published 2018)", "tested_on": "B. subtilis", "experiment": "Sublethal antibiotic concentration determination (growth-rate monitoring)", "type": "cell-based, Bacillus subtilis str. 168", "experimental": "A sublethal concentration for the antibiotics lincomycin, erythromycin, chloramphenicol, kanamycin, ofloxacin, ampicilin and bacitracin (Sigma) was determined for each of the organisms used in this study as follows. Bacterial cultures were propagated in LB or BHI O.N. in triplicates and diluted 1:200 into fresh media. Cultures were grown to early exponential phase (OD600=0.1-0.2) and then supplemented with serially diluted antibiotics stocks. The growth rate was dynamically monitored in intervals of 10-15 min using a 96 well plate format OD reader (Infinite M200 Tecan) for a period of at least 4 hours. […] To identify antibiotic-responsive regulators, bacteria were grown in LB or BHI in triplicates as described above and, upon reaching early exponential phase, 5 ml cultures were independently exposed for 15 minutes to the sublethal concentration of each antibiotic as determined above. Bacteria were then collected by centrifugation, flash frozen and stored in −80° C. until RNA extraction.", "data": [{"smiles": "O=C(O)c1cn(C2CC2)c2cc(N3CCNCC3)c(F)cc2c1=O", "note": "[Ciprofloxacin]", "values": [{"measurement": "Sublethal concentration (highest antibiotics concentration that did not cause growth-rate inhibition)", "setting": "Table 2", "value": 0.0625, "unit": "µg/mL"}, {"measurement": "Sublethal concentrations of antibiotics used in this study", "setting": "Table 6", "value": 0.0625, "unit": "µg/mL"}]}]}
